Some entries share one result that the patent states for a list of compounds.
Legend:
Botrytis cinerea = Botrytis cinerea (Gray mould) growth inhibition in nutrient broth, microtiter plate; type: cell-based; conditions: 20 ppm; PDB broth, 24° C., inhibition of growth determined photometrically after 72 hours
Pyrenophora teres = Pyrenophora teres (Net blotch) barley leaf segment test, preventive; type: in vivo; conditions: 200 ppm; barley leaf segments sprayed, preventive fungicidal activity assessed 4 dpi
Septoria tritici = Septoria tritici (Leaf Blotch) growth inhibition in nutrient broth, microtiter plate; type: cell-based; conditions: 20 ppm; PDB broth, 24° C., inhibition of growth determined photometrically after 72 hours
[1] = tested on: Erysiphe graminis f.sp. tritici; experiment: Erysiphe graminis f.sp. tritici (Wheat powdery mildew) leaf segment test, preventive; type: in vivo; conditions: 200 ppm; barley leaf segments sprayed, preventive fungicidal activity assessed 7 dpi

OC(c1cccnc1)c1c(-c2ccc(Cl)cc2)nsc1-c1ccc(Br)cc1 (centres unmarked) [A69]
at least 80%: control of Botrytis cinerea (Botrytis cinerea) | control of Pyrenophora teres (Pyrenophora teres) | control of Septoria tritici (Septoria tritici) | control of Erysiphe graminis [1]

OC(c1cccnc1)c1c(-c2ccc(F)cc2F)nsc1-c1ccc(Br)cc1 (centres unmarked) [A78]
at least 80%: control of Botrytis cinerea (Botrytis cinerea) | control of Pyrenophora teres (Pyrenophora teres) | control of Septoria tritici (Septoria tritici) | control of Erysiphe graminis [1]

OC(c1cccnc1)c1c(-c2ccc(F)cc2F)nsc1-c1ccc(Cl)cc1Cl (centres unmarked) [A79]
at least 80%: control of Botrytis cinerea (Botrytis cinerea) | control of Pyrenophora teres (Pyrenophora teres) | control of Septoria tritici (Septoria tritici) | control of Erysiphe graminis [1]

OC(c1cccnc1)c1c(-c2ccc(F)cc2F)nsc1-c1ccccc1 (centres unmarked) [A76]
at least 80%: control of Botrytis cinerea (Botrytis cinerea) | control of Pyrenophora teres (Pyrenophora teres) | control of Septoria tritici (Septoria tritici) | control of Erysiphe graminis [1]

OC(c1cccnc1)c1c(-c2ccccc2F)nsc1-c1ccc(Cl)cc1 (centres unmarked) [A65]
at least 80%: control of Botrytis cinerea (Botrytis cinerea) | control of Pyrenophora teres (Pyrenophora teres) | control of Septoria tritici (Septoria tritici) | control of Erysiphe graminis [1]

OC(c1cccnc1)c1c(-c2cccs2)nsc1-c1ccccc1 (centres unmarked) [A62]
at least 80%: control of Botrytis cinerea (Botrytis cinerea) | control of Pyrenophora teres (Pyrenophora teres) | control of Septoria tritici (Septoria tritici) | control of Erysiphe graminis [1]

OC(c1cccnc1)c1c(-c2ccccc2F)nsc1-c1ccc(Br)cc1 (centres unmarked) [A68]
at least 80%: control of Botrytis cinerea (Botrytis cinerea) | control of Pyrenophora teres (Pyrenophora teres) | control of Septoria tritici (Septoria tritici)

Cn1nc(-c2ccc(F)cc2F)c(C(O)c2cccnc2)c1-c1ccc(Cl)cc1 (centres unmarked) [C84, [5-(4-Chloro-phenyl)-3-(2,4-difluoro-phenyl)-1-methyl-1H-pyrazol-4-yl]-pyridin-3-yl-methanol]
at least 80%: control of Botrytis cinerea (Botrytis cinerea) | control of Septoria tritici (Septoria tritici) | control of Erysiphe graminis [1]

OC(c1cccnc1)c1c(-c2cccc(Cl)c2)nsc1-c1ccc(Cl)cc1 (centres unmarked) [A73]
at least 80%: control of Botrytis cinerea (Botrytis cinerea) | control of Septoria tritici (Septoria tritici)

OC(c1cccnc1)c1c(-c2ccc(Cl)cc2)nn(Cc2ccccc2)c1-c1ccc(Cl)cc1 (centres unmarked) [B91]
at least 80%: control of Septoria tritici (Septoria tritici)

Cn1nc(-c2ccccc2F)c(C(O)c2cccnc2)c1-c1ccc(Cl)cc1 (centres unmarked) [B90]
at least 80%: control of Septoria tritici (Septoria tritici) | control of Erysiphe graminis [1]

OC(c1cccnc1)c1c(-c2ccc(Cl)cc2)nsc1-c1ccc(Cl)cc1Cl (centres unmarked) [A14]
at least 80%: control of Botrytis cinerea (Botrytis cinerea) | control of Pyrenophora teres (Pyrenophora teres) | control of Septoria tritici (Septoria tritici) | control of Erysiphe graminis [1]

OC(c1cccnc1)c1c(-c2ccccc2F)nsc1-c1ccccc1 (centres unmarked) [A66]
at least 80%: control of Botrytis cinerea (Botrytis cinerea) | control of Pyrenophora teres (Pyrenophora teres) | control of Septoria tritici (Septoria tritici) | control of Erysiphe graminis [1]

OC(c1cccnc1)c1c(-c2cccs2)nsc1-c1ccc(Br)cc1 (centres unmarked) [A64]
at least 80%: control of Botrytis cinerea (Botrytis cinerea) | control of Septoria tritici (Septoria tritici) | control of Erysiphe graminis [1]

OC(c1cccnc1)c1c(-c2ccc(F)cc2F)nsc1-c1ccc(Cl)cc1 (centres unmarked) [A77]
at least 80%: control of Botrytis cinerea (Botrytis cinerea) | control of Pyrenophora teres (Pyrenophora teres) | control of Septoria tritici (Septoria tritici) | control of Erysiphe graminis [1]

Cn1nc(-c2ccc(F)cc2F)c(C(O)c2cccnc2)c1-c1ccc(F)cc1F (centres unmarked) [B86]
at least 80%: control of Botrytis cinerea (Botrytis cinerea) | control of Septoria tritici (Septoria tritici) | control of Erysiphe graminis [1]

OC(c1cccnc1)c1c(-c2ccc(Cl)cc2)nsc1-c1ccc(Cl)cc1F (centres unmarked) [A70]
at least 80%: control of Botrytis cinerea (Botrytis cinerea) | control of Pyrenophora teres (Pyrenophora teres) | control of Septoria tritici (Septoria tritici) | control of Erysiphe graminis [1]

OC(c1cccnc1)c1c(-c2cccs2)nsc1-c1ccc(Cl)cc1F (centres unmarked) [A71]
at least 80%: control of Botrytis cinerea (Botrytis cinerea) | control of Pyrenophora teres (Pyrenophora teres) | control of Septoria tritici (Septoria tritici) | control of Erysiphe graminis [1]

Cn1nc(-c2ccc(Cl)cc2)c(C(O)c2cccnc2)c1-c1ccccc1F (centres unmarked) [C87]
at least 80%: control of Septoria tritici (Septoria tritici) | control of Erysiphe graminis [1]

Cn1nc(-c2ccc(F)cc2)c(C(O)c2cccnc2)c1-c1ccc(Cl)cc1 (centres unmarked) [C85]
at least 80%: control of Septoria tritici (Septoria tritici) | control of Erysiphe graminis [1]

OC(c1cccnc1)c1c(-c2cccc(Cl)c2)nsc1-c1ccc(Cl)cc1Cl (centres unmarked) [A16]
at least 80%: control of Septoria tritici (Septoria tritici)

OC(c1cccnc1)c1c(-c2ccccc2F)nsc1-c1ccc(Cl)cc1F (centres unmarked) [A72]
at least 80%: control of Botrytis cinerea (Botrytis cinerea) | control of Pyrenophora teres (Pyrenophora teres) | control of Septoria tritici (Septoria tritici) | control of Erysiphe graminis [1]

OC(c1cccnc1)c1c(-c2ccc(Cl)cc2)nsc1-c1ccccc1 (centres unmarked) [A1, [3-(4-Chloro-phenyl)-5-phenyl-isothiazol-4-yl]-pyridin-3-yl-methanol]
at least 80%: control of Botrytis cinerea (Botrytis cinerea) | control of Pyrenophora teres (Pyrenophora teres) | control of Septoria tritici (Septoria tritici) | control of Erysiphe graminis [1]

Cn1nc(-c2ccc(Cl)cc2)c(C(O)c2cccnc2)c1-c1ccc(Cl)cc1 (centres unmarked) [B85]
at least 80%: control of Botrytis cinerea (Botrytis cinerea) | control of Septoria tritici (Septoria tritici)

Cn1nc(-c2ccc(Cl)cc2)c(C(O)c2cccnc2)c1-c1ccc(F)cc1F (centres unmarked) [B87, [3-(4-Chloro-phenyl)-5-(2,4-difluoro-phenyl)-1-methyl-1H-pyrazol-4-yl]-pyridin-3-yl-methanol]
at least 80%: control of Septoria tritici (Septoria tritici)

COc1ccc(-c2c(C(O)c3cccnc3)c(-c3ccc(Br)cc3)nn2C)cc1 (centres unmarked) [B84]
at least 80%: control of Botrytis cinerea (Botrytis cinerea) | control of Septoria tritici (Septoria tritici) | control of Erysiphe graminis [1]

OC(c1cccnc1)c1c(-c2cccc(Cl)c2)nsc1-c1ccc(Cl)cc1F (centres unmarked) [A75]
at least 80%: control of Botrytis cinerea (Botrytis cinerea) | control of Pyrenophora teres (Pyrenophora teres) | control of Septoria tritici (Septoria tritici)

OC(c1cccnc1)c1c(-c2cccc(Cl)c2)nsc1-c1ccccc1 (centres unmarked) [A4]
at least 80%: control of Botrytis cinerea (Botrytis cinerea) | control of Septoria tritici (Septoria tritici)

OC(c1cccnc1)c1c(-c2cccc(Cl)c2)nsc1-c1ccc(Br)cc1 (centres unmarked) [A74]
at least 80%: control of Botrytis cinerea (Botrytis cinerea) | control of Septoria tritici (Septoria tritici)

OC(c1cccnc1)c1c(-c2ccc(F)cc2F)nsc1-c1ccc(Cl)cc1F (centres unmarked) [A80]
at least 80%: control of Botrytis cinerea (Botrytis cinerea) | control of Pyrenophora teres (Pyrenophora teres) | control of Septoria tritici (Septoria tritici) | control of Erysiphe graminis [1]

OC(c1cccnc1)c1c(-c2ccc(Cl)cc2)nsc1-c1ccc(Cl)cc1 (centres unmarked) [A2]
at least 80%: control of Botrytis cinerea (Botrytis cinerea) | control of Pyrenophora teres (Pyrenophora teres) | control of Septoria tritici (Septoria tritici) | control of Erysiphe graminis [1]
